These results are taken from the M2OR odorant receptor database.

Chains of the proteins cited; added tags and fusions are not shown. A line that says so, or that is headed by a name, gives the form on record, which may keep a tag or linker.
OR9G9, as listed by the source: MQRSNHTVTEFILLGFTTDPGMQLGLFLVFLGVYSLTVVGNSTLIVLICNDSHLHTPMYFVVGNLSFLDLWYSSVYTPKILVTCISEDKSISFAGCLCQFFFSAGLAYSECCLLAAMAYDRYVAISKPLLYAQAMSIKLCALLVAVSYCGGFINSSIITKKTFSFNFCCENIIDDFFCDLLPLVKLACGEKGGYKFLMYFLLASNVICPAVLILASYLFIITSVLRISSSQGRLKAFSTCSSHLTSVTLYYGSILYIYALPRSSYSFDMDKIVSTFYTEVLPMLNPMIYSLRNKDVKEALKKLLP

Common to all, as to details: stereoisomer not certain
In one assay the test system is T1, OR9G4.
T1 sequence (whole entry): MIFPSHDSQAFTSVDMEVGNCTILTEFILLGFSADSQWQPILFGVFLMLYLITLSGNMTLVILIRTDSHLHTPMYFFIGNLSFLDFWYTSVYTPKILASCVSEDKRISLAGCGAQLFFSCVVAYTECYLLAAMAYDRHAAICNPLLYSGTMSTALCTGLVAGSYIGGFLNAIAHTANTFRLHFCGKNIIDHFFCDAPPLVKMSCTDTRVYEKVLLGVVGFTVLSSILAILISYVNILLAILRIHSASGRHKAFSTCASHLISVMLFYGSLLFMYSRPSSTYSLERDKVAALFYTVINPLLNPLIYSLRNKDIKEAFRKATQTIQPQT
The method, boiled down: (§1)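 Whether a receptor–molecule pair is responsive (active) rests on the original authors' judgment that its measured signal was statistically different from baseline. Pairs without that judgment are non-responsive (inactive). Sources used varied assay methods, commonly transient luciferase assays in mammalian cell lines.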

For assay [1], the system named is T2, OR9G9.
T2 sequence (whole entry): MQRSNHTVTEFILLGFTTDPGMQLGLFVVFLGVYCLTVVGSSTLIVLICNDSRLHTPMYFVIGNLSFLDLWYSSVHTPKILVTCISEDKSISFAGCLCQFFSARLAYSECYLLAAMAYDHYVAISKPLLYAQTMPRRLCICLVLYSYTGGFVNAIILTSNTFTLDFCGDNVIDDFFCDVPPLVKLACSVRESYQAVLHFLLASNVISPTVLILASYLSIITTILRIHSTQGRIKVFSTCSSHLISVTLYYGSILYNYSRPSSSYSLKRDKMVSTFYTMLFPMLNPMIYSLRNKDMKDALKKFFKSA
The method, boiled down:
as §1

The subject of assay [2] is T3, OR9G9.
T3 sequence (whole entry): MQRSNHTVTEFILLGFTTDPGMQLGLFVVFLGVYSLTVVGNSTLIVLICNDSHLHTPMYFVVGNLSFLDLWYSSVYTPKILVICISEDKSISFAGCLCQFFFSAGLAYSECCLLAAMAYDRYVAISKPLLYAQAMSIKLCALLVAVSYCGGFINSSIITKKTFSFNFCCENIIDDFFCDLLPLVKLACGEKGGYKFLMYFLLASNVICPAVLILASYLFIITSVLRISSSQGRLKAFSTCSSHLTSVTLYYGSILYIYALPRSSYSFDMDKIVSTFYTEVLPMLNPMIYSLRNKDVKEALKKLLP
Summed up:
as §1
The source holds these as a separate data set.

The next assay deals with T4, OR9I1 (Homo sapiens) (UniProt Q8NGQ6).
T4 sequence (whole entry): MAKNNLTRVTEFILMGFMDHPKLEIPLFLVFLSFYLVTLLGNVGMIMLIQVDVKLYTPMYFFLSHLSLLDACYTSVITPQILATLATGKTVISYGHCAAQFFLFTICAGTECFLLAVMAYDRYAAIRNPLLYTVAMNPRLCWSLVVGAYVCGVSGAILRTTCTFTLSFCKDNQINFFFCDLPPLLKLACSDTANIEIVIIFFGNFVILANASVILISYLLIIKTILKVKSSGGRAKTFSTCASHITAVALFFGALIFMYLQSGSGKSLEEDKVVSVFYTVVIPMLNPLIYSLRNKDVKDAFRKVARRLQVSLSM
Summed up:
as §1

In a further assay the target is T5, OR9K2 (Homo sapiens) (UniProt Q8NGE7).
T5 sequence (whole entry): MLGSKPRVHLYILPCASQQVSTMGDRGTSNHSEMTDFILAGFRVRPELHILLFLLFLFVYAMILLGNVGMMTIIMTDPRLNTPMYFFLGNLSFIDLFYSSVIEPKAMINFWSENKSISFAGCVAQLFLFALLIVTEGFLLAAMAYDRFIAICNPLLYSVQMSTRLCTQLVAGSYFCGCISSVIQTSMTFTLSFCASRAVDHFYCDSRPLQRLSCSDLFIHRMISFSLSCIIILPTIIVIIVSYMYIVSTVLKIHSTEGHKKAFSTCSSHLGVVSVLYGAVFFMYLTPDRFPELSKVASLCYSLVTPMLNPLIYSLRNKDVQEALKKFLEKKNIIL
The method, boiled down: as §1

In the next assay the test system is T6, OR9Q1.
T6 sequence (whole entry): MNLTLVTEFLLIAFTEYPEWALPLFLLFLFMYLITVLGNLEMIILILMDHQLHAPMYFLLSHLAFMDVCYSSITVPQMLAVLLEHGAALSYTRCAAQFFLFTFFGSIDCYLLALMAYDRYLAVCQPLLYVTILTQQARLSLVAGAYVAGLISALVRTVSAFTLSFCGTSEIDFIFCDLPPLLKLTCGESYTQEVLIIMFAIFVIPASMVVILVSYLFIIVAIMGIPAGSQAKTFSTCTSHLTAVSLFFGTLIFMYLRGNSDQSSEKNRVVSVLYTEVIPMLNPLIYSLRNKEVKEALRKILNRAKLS
The method, boiled down:
as §1

The target of another assay is T7, OR9Q2 (Homo sapiens) (UniProt Q8NGE9).
T7 sequence (whole entry): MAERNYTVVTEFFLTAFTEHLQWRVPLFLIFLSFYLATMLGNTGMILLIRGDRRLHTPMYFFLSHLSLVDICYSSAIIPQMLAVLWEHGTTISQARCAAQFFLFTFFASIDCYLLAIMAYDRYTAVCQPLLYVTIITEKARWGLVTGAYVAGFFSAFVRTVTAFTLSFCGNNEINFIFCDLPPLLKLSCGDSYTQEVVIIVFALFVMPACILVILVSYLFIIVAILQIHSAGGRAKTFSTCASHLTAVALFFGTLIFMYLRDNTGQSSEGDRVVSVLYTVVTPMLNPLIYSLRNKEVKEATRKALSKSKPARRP
The method, boiled down: as §1

For another assay, the system named is T8, OR9Q2.
T8 sequence (whole entry): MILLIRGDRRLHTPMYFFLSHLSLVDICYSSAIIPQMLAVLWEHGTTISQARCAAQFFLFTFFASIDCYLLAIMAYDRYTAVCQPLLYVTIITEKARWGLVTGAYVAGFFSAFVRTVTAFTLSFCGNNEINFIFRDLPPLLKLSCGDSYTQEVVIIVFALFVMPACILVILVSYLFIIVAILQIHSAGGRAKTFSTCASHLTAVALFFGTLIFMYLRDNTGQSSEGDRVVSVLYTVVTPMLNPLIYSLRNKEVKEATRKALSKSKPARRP
Summed up:
as §1

Another assay has as its system T9, ORM2B.
T9 sequence (whole entry): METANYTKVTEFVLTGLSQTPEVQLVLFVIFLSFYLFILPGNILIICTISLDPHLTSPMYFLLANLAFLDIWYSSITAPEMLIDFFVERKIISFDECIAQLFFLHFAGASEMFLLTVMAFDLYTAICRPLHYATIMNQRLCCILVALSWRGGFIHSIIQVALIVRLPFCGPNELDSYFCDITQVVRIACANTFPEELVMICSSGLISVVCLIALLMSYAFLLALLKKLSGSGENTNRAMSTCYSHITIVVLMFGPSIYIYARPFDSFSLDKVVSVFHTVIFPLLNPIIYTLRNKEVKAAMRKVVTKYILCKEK
The method, boiled down:
as §1

Assay [3] deals with OR9G9. The method, boiled down:
as §1
The source holds these as a separate data set.

Another assay deals with OR9G9 (Homo sapiens) (UniProt P0C7N8). Summed up: as §1
Another assay deals with OR9Q1 (Homo sapiens) (UniProt Q8NGQ5). Summed up: as §1

This is a selection; strong and weak results do not stand in their true shares. The calls were merged from several studies; some rest on single wells. The list shows a part of the results.
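Further: active if original authors judged signal statistically different from baseline.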

Regarding `CC(=O)OCC=C(C)CCC=C(C)C`, the “odorant receptor agonist call” value in the assay with OR9G4, in the assay with OR9G9 [1], with OR9G9 [2], in the assay with OR9I1 (Homo sapiens), with OR9K2 (Homo sapiens) and in the assay on OR9Q1 was “inactive” throughout. The “odorant receptor agonist call” value with OR9Q2 (Homo sapiens), in the assay on OR9Q2 and in the assay with ORM2B was “inactive” each time.

Regarding `CC=Cc1ccc(O)c(OC)c1`, the “odorant receptor agonist call” value in the assay with OR9G4, with OR9G9 [1], in the assay with OR9G9 [2], with OR9I1 (Homo sapiens), in the assay with OR9K2 (Homo sapiens) and in the assay with OR9Q2 (Homo sapiens) was “inactive” throughout. The “odorant receptor agonist call” value in the assay with OR9Q2 and with ORM2B was “inactive” each time. The “odorant receptor agonist call” value in the assay on OR9Q1 is “active”.

Consider `C=CCSCC=C`, for which the “odorant receptor agonist call” value with OR9G4, in the assay with OR9G9 [1], in the assay with OR9G9 [2], with OR9I1 (Homo sapiens), with OR9K2 (Homo sapiens) and with OR9Q1 was “inactive” throughout. Further, the “odorant receptor agonist call” value in the assay with OR9Q2 (Homo sapiens), in the assay on OR9Q2 and in the assay on ORM2B was “inactive” throughout.

As to `C=CCc1ccc(OC(C)=O)c(OC)c1`, the “odorant receptor agonist call” value with OR9G4, in the assay with OR9G9 [1], in the assay on OR9G9 [2], with OR9I1 (Homo sapiens), with OR9K2 (Homo sapiens) and with OR9Q2 (Homo sapiens) was “inactive” throughout. In addition, the “odorant receptor agonist call” value in the assay with OR9Q2 and with ORM2B was “inactive” in each case. Moreover, the “odorant receptor agonist call” value in the assay with OR9G9 [3] and in the assay on OR9Q1 was “active” each time.

For the compound `O=C1CCCCCCCCCCCC(=O)OCCO1`, the “odorant receptor agonist call” value with OR9G4, with OR9G9 [1], with OR9G9 [2], with OR9I1 (Homo sapiens), with OR9K2 (Homo sapiens) and with OR9Q1 was “inactive” in each case. Besides, the “odorant receptor agonist call” value with OR9Q2 (Homo sapiens), with OR9Q2 and in the assay with ORM2B was “inactive” throughout.

Turning to `CC12C=CCC1C1CCC3CC(=O)CCC3(C)C1CC2` (stereo not given), the “odorant receptor agonist call” value in the assay with OR9G4, with OR9G9 (Homo sapiens), with OR9G9 [2], with OR9K2 (Homo sapiens), with OR9Q1 (Homo sapiens) and with OR9Q1 was “inactive” each time. For the same compound, the “odorant receptor agonist call” value with OR9Q2 (Homo sapiens), in the assay on OR9Q2 and with ORM2B was “inactive” throughout. Besides, the “odorant receptor agonist call” value in the assay on OR9G9 [1] was “active”.

`CC(=O)OC(C)(C)C1CC=C(C)CC1` (stereo not given): the “odorant receptor agonist call” value with OR9G4, in the assay with OR9G9 [1], in the assay on OR9G9 [2], with OR9I1 (Homo sapiens), in the assay with OR9K2 (Homo sapiens) and in the assay on OR9Q1 was “inactive” in each case. Further, the “odorant receptor agonist call” value with OR9Q2 (Homo sapiens), in the assay on OR9Q2 and with ORM2B was “inactive” in each case.
